PubChem BioAssay AID504804 | Drosophila RNAi Screening Center – 2011
The deposit covers about 19,000 reagents; shown is a random part of those with a known target gene and a result. In the full data, 47 (0.25%) got an active call. 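Signals are raw, not normalised; exact z-scores behind calls not deposited; actives needed confirmation, so some wells reaching 2 SD are inactive.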 Entries without a mark were called inactive. Names joined by + are all predicted targets of the reagent.

Screen: 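Fly genes whose loss lessens doxorubicin-driven cell death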 (primary screen)
Cell system: Drosophila Kc cells
Reagents: long dsRNA against Drosophila genes, 0.5 µg dsRNA per well
Time to read-out: 96 h (48 h knock-down, then 48 h drug)
Treatment: doxorubicin 5 µg/ml for 48 h, added 48 h after dsRNA
Read-out: 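Luminescent ATP counts per replicate, not normalised, reflecting viable cells after 48 h dsRNA knock-down followed by 48 h of 5 µg/ml doxorubicin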
Reading the numbers: raw ATP luminescence: higher = more viable cells, protection from doxorubicin
Active means: 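Active when both duplicate wells lie at least 2 SD above the plate mean and protection is confirmed by rescreening and independent dsRNAs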

target gene | DRSC id | raw ATP luminescence, replicate 1 | raw ATP luminescence, replicate 2
CG32219 | DRSC09641 | 56417 | 75083
CG16825 | DRSC02526 | 42263 | 65427
Or9a | DRSC18692 | 2.85e5 | 3.10e5
CG10384 | DRSC03933 | 79073 | 79913
CG10384 | DRSC04067 | 28900 | 36310
SdhD | DRSC14215 | 51510 | 48860
CG31782 (retired record) | DRSC01554 | 2.19e5 | 1.96e5
CG31782 (retired record) | DRSC01556 | 2.24e5 | 2.00e5
CG32369 | DRSC10042 | 73093 | 78753
CG32369 | DRSC10834 | 36817 | 36383
Marcal1 | DRSC02718 | 27763 | 37983
CG32107 | DRSC09221 | 71747 | 82833
Elp4 | DRSC02999 | 25673 | 28393
edl | DRSC06516 | 63163 | 71177
CG31835 + CG42585 | DRSC01412 | 1.95e5 | 2.05e5
Osi24 | DRSC12275 | 71220 | 70040
NT1 | DRSC08530 | 76777 | 72910
Trxr2 | DRSC11900 | 51613 | 52503
CG2059 | DRSC18203 | 41440 | 51090
CG30002 | DRSC05182 | 81533 | 83873
Syx17 | DRSC08591 | 34620 | 43343
Cpn | DRSC16613 | 78710 | 44300
CG7974 | DRSC08607 | 62913 | 65500
